Results on four molecules are retold here after article PMC3646048.

The target in assay [1] is T1, HA-tagged TSHZ3 full length (UniProt Q8CGV9).
T1 sequence: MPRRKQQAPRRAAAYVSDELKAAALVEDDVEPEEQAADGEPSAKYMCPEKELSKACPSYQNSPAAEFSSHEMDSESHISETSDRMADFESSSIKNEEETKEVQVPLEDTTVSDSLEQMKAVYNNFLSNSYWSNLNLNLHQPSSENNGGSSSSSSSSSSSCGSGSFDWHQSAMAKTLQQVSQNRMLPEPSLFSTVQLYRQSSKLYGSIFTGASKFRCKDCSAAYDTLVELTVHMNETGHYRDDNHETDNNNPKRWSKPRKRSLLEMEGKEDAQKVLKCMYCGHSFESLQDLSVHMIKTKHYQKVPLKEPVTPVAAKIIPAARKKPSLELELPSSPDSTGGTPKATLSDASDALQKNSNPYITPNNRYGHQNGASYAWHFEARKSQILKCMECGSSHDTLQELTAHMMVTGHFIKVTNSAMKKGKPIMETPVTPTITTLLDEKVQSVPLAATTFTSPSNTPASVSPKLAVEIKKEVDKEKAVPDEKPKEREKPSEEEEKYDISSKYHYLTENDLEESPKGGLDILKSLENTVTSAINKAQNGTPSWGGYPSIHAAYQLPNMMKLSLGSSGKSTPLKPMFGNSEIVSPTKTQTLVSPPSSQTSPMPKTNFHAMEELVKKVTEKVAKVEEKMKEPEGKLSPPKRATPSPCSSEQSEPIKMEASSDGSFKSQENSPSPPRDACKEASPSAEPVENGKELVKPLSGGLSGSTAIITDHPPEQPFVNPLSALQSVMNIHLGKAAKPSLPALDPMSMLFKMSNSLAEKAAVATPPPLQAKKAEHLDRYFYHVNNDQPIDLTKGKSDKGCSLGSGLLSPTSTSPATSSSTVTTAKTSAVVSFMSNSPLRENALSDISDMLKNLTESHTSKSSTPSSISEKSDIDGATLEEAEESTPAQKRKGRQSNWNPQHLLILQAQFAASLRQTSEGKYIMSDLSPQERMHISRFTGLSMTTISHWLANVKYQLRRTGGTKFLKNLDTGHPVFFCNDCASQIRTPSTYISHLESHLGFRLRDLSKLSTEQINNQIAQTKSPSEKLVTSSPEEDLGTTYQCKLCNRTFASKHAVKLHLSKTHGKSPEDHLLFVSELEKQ
Kind of assay: co-IP; reciprocal: HEK293T cells transiently transfected; immunoprecipitation with anti-HA (3F10) and protein G beads; immunoblot with anti-Flag. A general note: In western blotting, separated proteins are transferred to a membrane and probed.

Assay [2] concerns the target Flag-tagged MYOCD-856 (mouse). Briefly: co-IP; HEK293T cells transfected with HA-SRF, HA-SOX9, HA-TSHZ3 or HA-TSHZ3-trunc with Flag-MYOCD; Flag-MYOCD immunoprecipitated from nuclear extracts; HA-tagged proteins detected by Western blotting; increasing amounts of TSHZ3.
The target in assay [3] is Flag-tagged MYOCD-856 (mouse). Briefly: co-IP; HEK293T cells transiently transfected; lysis buffer 50 mM Tris-HCl pH 7.6, 200 mM NaCl, 1 mM EDTA, 0.25% Na-deoxycholate; anti-Flag agarose M2 beads overnight at 4°C; immunoblot with anti-HA.
Assay [4] concerns the target Flag-epitope tagged N-terminal SOX9 (Sox9 DC). The description is as above.

No constants are given. Whether binding was seen depends on the method and setting. In cells and extracts the contact can be indirect. Binding can be weak; no strength is given. Tags and fused reporters may be left off the sequences shown.

For the molecule Flag-tagged MYOCD-856 (mouse), the binding entry in assay [1] is given as “binds”.

B1: HA-SRF (protein, UniProt Q9JM73 1-504)
chain: MLPSQAGAAAALGRGSALGGNLNRTPTGRPGGGGGTRGANGGRVPGNGAGLGQSRLEREAAAAAAPTAGALYSGSEGDSESGEEEELGAERRGLKRSLSEMELGVVVGGPEAAAAAAGGYGPVSGAVSGAKPGKKTRGRVKIKMEFIDNKLRRYTTFSKRKTGIMKKAYELSTLTGTQVLLLVASETGHVYTFATRKLQPMITSETGKALIQTCLNSPDSPPRSDPTTDQRMSATGFEEPDLTYQVSESDSSGETKDTLKPAFTVTNLPGTTSTIQTAPSTSTTMQVSSGPSFPITNYLAPVSASVSPSAVSSANGTVLKSTGSGPVSSGGLMQLPTSFTLMPGGAVAQQVPVQAIHVHQAPQQASPSRDSSTDLTQTSSSGTVTLPATIMTSSVPTTVGGHMMYPSPHAVMYAPTSGLADGSLTVLNAFSQAPSTMQVSHSQVQEPGGVPQVFLTAPSGTVQIPVSAVQLHQMAVIGQQAGSSSNLTELQVVNLDATHSTKSE
Regarding B1, in assay [2], the binding entry was “binds”.

B2: N-TSHZ3-HA (domain or fragment, UniProt Q8CGV9 1-483)
chain: MPRRKQQAPRRAAAYVSDELKAAALVEDDVEPEEQAADGEPSAKYMCPEKELSKACPSYQNSPAAEFSSHEMDSESHISETSDRMADFESSSIKNEEETKEVQVPLEDTTVSDSLEQMKAVYNNFLSNSYWSNLNLNLHQPSSENNGGSSSSSSSSSSSCGSGSFDWHQSAMAKTLQQVSQNRMLPEPSLFSTVQLYRQSSKLYGSIFTGASKFRCKDCSAAYDTLVELTVHMNETGHYRDDNHETDNNNPKRWSKPRKRSLLEMEGKEDAQKVLKCMYCGHSFESLQDLSVHMIKTKHYQKVPLKEPVTPVAAKIIPAARKKPSLELELPSSPDSTGGTPKATLSDASDALQKNSNPYITPNNRYGHQNGASYAWHFEARKSQILKCMECGSSHDTLQELTAHMMVTGHFIKVTNSAMKKGKPIMETPVTPTITTLLDEKVQSVPLAATTFTSPSNTPASVSPKLAVEIKKEVDKEKAVPDE
As to B2, in assay [3], the binding entry was “binds”.

B3: HA-tagged TSHZ3 full length (protein, UniProt Q8CGV9 1-1081)
chain: MPRRKQQAPRRAAAYVSDELKAAALVEDDVEPEEQAADGEPSAKYMCPEKELSKACPSYQNSPAAEFSSHEMDSESHISETSDRMADFESSSIKNEEETKEVQVPLEDTTVSDSLEQMKAVYNNFLSNSYWSNLNLNLHQPSSENNGGSSSSSSSSSSSCGSGSFDWHQSAMAKTLQQVSQNRMLPEPSLFSTVQLYRQSSKLYGSIFTGASKFRCKDCSAAYDTLVELTVHMNETGHYRDDNHETDNNNPKRWSKPRKRSLLEMEGKEDAQKVLKCMYCGHSFESLQDLSVHMIKTKHYQKVPLKEPVTPVAAKIIPAARKKPSLELELPSSPDSTGGTPKATLSDASDALQKNSNPYITPNNRYGHQNGASYAWHFEARKSQILKCMECGSSHDTLQELTAHMMVTGHFIKVTNSAMKKGKPIMETPVTPTITTLLDEKVQSVPLAATTFTSPSNTPASVSPKLAVEIKKEVDKEKAVPDEKPKEREKPSEEEEKYDISSKYHYLTENDLEESPKGGLDILKSLENTVTSAINKAQNGTPSWGGYPSIHAAYQLPNMMKLSLGSSGKSTPLKPMFGNSEIVSPTKTQTLVSPPSSQTSPMPKTNFHAMEELVKKVTEKVAKVEEKMKEPEGKLSPPKRATPSPCSSEQSEPIKMEASSDGSFKSQENSPSPPRDACKEASPSAEPVENGKELVKPLSGGLSGSTAIITDHPPEQPFVNPLSALQSVMNIHLGKAAKPSLPALDPMSMLFKMSNSLAEKAAVATPPPLQAKKAEHLDRYFYHVNNDQPIDLTKGKSDKGCSLGSGLLSPTSTSPATSSSTVTTAKTSAVVSFMSNSPLRENALSDISDMLKNLTESHTSKSSTPSSISEKSDIDGATLEEAEESTPAQKRKGRQSNWNPQHLLILQAQFAASLRQTSEGKYIMSDLSPQERMHISRFTGLSMTTISHWLANVKYQLRRTGGTKFLKNLDTGHPVFFCNDCASQIRTPSTYISHLESHLGFRLRDLSKLSTEQINNQIAQTKSPSEKLVTSSPEEDLGTTYQCKLCNRTFASKHAVKLHLSKTHGKSPEDHLLFVSELEKQ
For B3, the binding entry in assay [4] and in assay [3] was “binds” each time.
